{"source": "paper PMC12670160", "about": "“A drug-repurposing screen of FDA- and EMA-approved drugs identifies two NF-κB inhibitors active against eumycetoma” (Journal of Antimicrobial Chemotherapy, 2025)", "note": "Counter-ions that a name gives are not always drawn. The campaign covered roughly 5,300 compounds. About 130 (2.5%) showed an effect of 50% or more. Some of the results follow. Numbered stars: 1 amine (or outer) side, 2 acyl side, 3 side chain; on linkers, the order of the positions; unused ones are H or OH. Square brackets hold non-standard residues; d marks the D form. Side chains are listed from the residue outwards. Peptide text beside a SMILES is read from it. * marks the point of attachment. Ethylenediamine = C(CN[*:2])N[*:1]; Hyp = O=C(O)[C@@H]1C[C@@H](O)CN1; Phg = N[C@H](C(=O)O)c1ccccc1; CO = O=C([*:1])[*:2]; Bn = c1ccc(C*)cc1", "data": [{"test_system": "M. mycetomatis strain mm55", "settings": "primary screen, metabolic activity vs growth control; 96 h, 2 µM; inhibitor", "units": {"% viability": "%"}, "values": [{"smiles": "Nc1ccn([C@H]2CC[C@@H](CO)O2)c(=O)n1", "note": "[ONC0003905, zalcitabine]", "% viability": 70.49}, {"smiles": "CC(C)OC(=O)N1CCC(Oc2ncnc3c2cnn3-c2ccc(S(C)(=O)=O)cc2F)CC1", "note": "[ONC0001197, apd668]", "% viability": 88.83}, {"smiles": "O=C1c2ccccc2NC2=CCCCCN12", "note": "[ONC0003231, 78910tetrahydroazepino21bquinazolin126hone]", "% viability": 99.72}, {"smiles": "OC(CCCN1CCN(c2ncc(F)cn2)CC1)c1ccc(F)cc1", "note": "(centres unmarked) [ONC0003078, bmy14802]", "% viability": 69.85}, {"smiles": "COc1cc(/C=C/C(N)=O)cc(OC)c1OC", "note": "[ONC0003157, cintriamide]", "% viability": 86.24}, {"smiles": "CN(C(=O)C(Cl)Cl)c1ccc(OC(=O)c2ccco2)cc1", "note": "[ONC0003891, diloxanide furoate]", "% viability": 73.42}, {"smiles": "CCCCCCCCCCCCCCCc1cccc(OCC(=O)NCCO)c1", "note": "[ONC0003083, pdpea]", "% viability": 82.41}, {"smiles": "O=C(Nc1ccccc1C(=O)NC1CCCCNC1=O)c1cc2ccccc2s1", "note": "(centres unmarked) [ONC0000199, ana12]", "% viability": 69.04}, {"smiles": "COc1cccc(C(=O)CCN[C@@H](C)[C@H](O)c2ccccc2)c1", "note": "[ONC0001994, oxyfedrine]", "% viability": 84.7}, {"smiles": "CSc1nc2ccc3nc(NC(=O)C(c4ccccc4)c4ccccc4)sc3c2s1", "note": "[ONC0000063, gue1654]", "% viability": 103.5}, {"smiles": "N#Cc1cc(NC(=O)C(=O)O)c(Cl)c(NC(=O)C(=O)O)c1", "note": "[ONC0002293, lodoxamide]", "% viability": 84.84}, {"smiles": "Cc1cccc(C)c1OCC(C)N", "note": "(centres unmarked) [ONC0002391, mexiletine hydrochloride]", "% viability": 87.09}, {"smiles": "O=C(/C=C/c1ccc2c(c1)OCO2)N1CCCCC1", "note": "[ONC0002363, ilepcimide]", "% viability": 63.52}, {"smiles": "O=C(Nc1ccc(Oc2ccc(Cl)cn2)c(Cl)c1)c1ccccn1", "note": "[ONC0003686, vu0422288]", "% viability": 84}, {"smiles": "CC(=O)Oc1c(C)cc(OCC(O)CNC(C)C)c(C)c1C", "note": "(centres unmarked) [ONC0003410, metipranolol]", "% viability": 54.1}, {"smiles": "CCOc1cc(OCC)c(C(=O)CCC(=O)O)cc1OCC", "note": "[ONC0000289, trepibutone]", "% viability": 73.35}, {"smiles": "COc1ccccc1N1CCN(CCCCN2C(=O)c3ccccc3C2=O)CC1", "note": "[ONC0001540, nan190]", "% viability": 85.08}, {"smiles": "CCOC(=O)Nc1ccc2c(c1)N(C(=O)CN(C)C)c1ccccc1CC2", "note": "[ONC0002826, tiracizine]", "% viability": 78.27}, {"smiles": "O=C(O)c1cc(O)c2c(Cl)cc(Cl)cc2n1", "note": "[ONC0001427, 57dichlorokynurenicacid]", "% viability": 78.42}, {"smiles": "O=C(CCCCCCCC(=O)NCCO)NCCO", "note": "[ONC0000286, adelmidrol]", "% viability": 65.71}, {"smiles": "CCOc1ccc(Nc2nc(-c3c(C)nc4ccccn34)cs2)cc1", "note": "[ONC0000824, jk184]", "% viability": 102.1}, {"smiles": "Cc1cc(I)ccc1Nc1c(C(=O)NOCC2CC2)cc(F)c(F)c1F", "note": "[ONC0003526, pd198306]", "% viability": 112.8}, {"smiles": "Cc1cc(=O)[nH]c(=S)[nH]1", "note": "[ONC0000474, methylthiouracil]", "% viability": 91.87}, {"smiles": "Cc1ccc(-c2nn(C(C)(C)CNC(=O)c3ncccc3C)c3ncnc(N)c23)cc1", "note": "[ONC0001927, wehi345 analog]", "% viability": 93.39}, {"smiles": "COc1ccccc1OCC(O)CO", "note": "(centres unmarked) [ONC0000374, guaifenesin]", "% viability": 64.47}, {"smiles": "C=C1/C(=C/C=C2\\CCC[C@]3(C)[C@@H]([C@H](C)/C=C/[C@@H](C)C(C)C)CC[C@@H]23)C[C@@H](O)C[C@@H]1O", "note": "[ONC0004870, doxercalciferol hectorol]", "% viability": 79.32}, {"smiles": "C[C@@H]1O[C@@H](Oc2c(-c3cc(O)c(O)c(O)c3)oc3cc(O)cc(O)c3c2=O)[C@@H](O)[C@H](O)[C@H]1O", "note": "[ONC0004958, myricitrin myricitrine]", "% viability": 68.08}, {"smiles": "CC[C@]1(O)C[C@H]2CN(CCc3c([nH]c4ccccc34)[C@@](C(=O)OC)(c3cc4c(cc3OC)N(C=O)[C@H]3[C@@](O)(C(=O)OC)[C@H](OC(C)=O)[C@]5(CC)C=CCN6CC[C@]43[C@@H]65)C2)C1", "note": "[ONC0002022, vincristine sulfate]", "% viability": 106.7}, {"smiles": "NC[C@@H]1O[C@H](O[C@H]2[C@@H](O)[C@H](O[C@@H]3[C@@H](O)[C@H](N)C[C@H](N)[C@H]3O[C@H]3O[C@H](CO)[C@@H](O)[C@H](O)[C@H]3N)O[C@@H]2CO)[C@H](N)[C@@H](O)[C@@H]1O", "note": "[ONC0005310, paromomycin]", "% viability": 134.8}, {"smiles": "Nc1nc(CC(=O)Nc2ccc(CCNC[C@H](O)c3ccccc3)cc2)cs1", "note": "[ONC0004810, mirabegron ym178]", "% viability": 76.32}, {"smiles": "NC(=O)c1ccc2[nH]ccc2c1", "note": "[ONC0002948, sd169]", "% viability": 85.1}, {"smiles": "CC(C)(C)Nc1nc(Nc2ccc(C(N)=O)cc2)cc(N)c1C#N", "note": "[ONC0002695, tcmps112]", "% viability": 55.9}, {"smiles": "Brc1ccc(NC2C3CC4CC(C3)CC2C4)cc1", "note": "(centres unmarked) [ONC0003854, bromantan]", "% viability": 62.63}, {"smiles": "Cc1c(N(C)C)c(=O)n(-c2ccccc2)n1C", "note": "[ONC0003206, aminopyrine]", "% viability": 63.7}, {"smiles": "Oc1c(Cl)cc(Cl)c(Cl)c1Cc1c(O)c(Cl)cc(Cl)c1Cl", "note": "[ONC0000366, hexachlorophene]", "% viability": 158.2}, {"smiles": "Cc1oc(=O)oc1COC(=O)C1=C([C@H]2CCCO2)S[C@@H]2[C@@H]([C@@H](C)O)C(=O)N12", "note": "[ONC0001072, faropenem daloxate]", "% viability": 41.67}, {"smiles": "CCOc1cc2ncc(C#N)c(Nc3ccc(F)c(Cl)c3)c2cc1NC(=O)/C=C/CN(C)C", "note": "[ONC0004888, pelitinib ekb569]", "% viability": 142.6}, {"smiles": "Cc1cc(/C=C/C#N)cc(C)c1Nc1ccnc(Nc2ccc(C#N)cc2)n1", "note": "[ONC0005185, rilpivirine]", "% viability": 107.3}, {"smiles": "CN(C)c1cc(NC(=O)CNC(C)(C)C)c(O)c2c1C[C@H]1C[C@H]3[C@H](N(C)C)C(=O)C(C(N)=O)C(=O)[C@@]3(O)C(=O)C1C2=O", "note": "(some centres unmarked) [ONC0005493, tigecycline]", "% viability": 77.34}, {"smiles": "COc1cc2c(cc1O)C(CCc1ccc(Cl)cc1)N(C)CC2", "note": "(centres unmarked) [ONC0000203, ro045595]", "% viability": 65.42}, {"smiles": "N#Cc1cnc2c(Cl)cc(NCc3cn(CCN4CCCCCC4)nn3)cc2c1Nc1ccc(F)c(Cl)c1", "note": "[ONC0000779, cot inhibitor1]", "% viability": 49.03}, {"smiles": "Oc1ccc(/C=C/c2cc(O)cc(O)c2)cc1", "note": "[ONC0001122, resveratrol]", "% viability": 51.21}, {"smiles": "CCN(CC)Cc1ccc(C(=O)N(CCc2ccccc2OC)[C@@H]2CCNC2)cc1", "note": "[ONC0002565, pf429242]", "% viability": 67.81}, {"smiles": "CCOC(=O)C1=C(COCCN)NC(C)=C(C(=O)OC)C1c1ccccc1Cl", "note": "(centres unmarked) [ONC0004005, amlodipine besylate]", "% viability": 63.47}, {"smiles": "NCCCC[C@@H]1NC(=O)[C@@H](Cc2c[nH]c3ccccc23)NC(=O)[C@H](c2ccccc2)NC(=O)[C@@H]2C[C@@H](OC(=O)NCCN)CN2C(=O)[C@H](Cc2ccccc2)NC(=O)[C@H](Cc2ccc(OCc3ccccc3)cc2)NC1=O", "note": "[ONC0002267, pasireotide ditrifluoroacetate] (cyclo([Hyp]([CO-Ethylenediamine])[Phg][dW]KY(Bn)F))", "% viability": 70.05}, {"smiles": "COc1ccc(/C=C/C(=O)Nc2ccccc2C(=O)O)cc1OC", "note": "[ONC0003901, tranilast]", "% viability": 58.84}, {"smiles": "CCN(CC)CCNC(=O)c1c(C)[nH]c(/C=C2\\C(=O)Nc3ccc(F)cc32)c1C", "note": "[ONC0002430, sunitinib]", "% viability": 105.9}, {"smiles": "COc1ccc(-n2nc(C(F)(F)F)cc2-c2ccc(Cl)cc2)cc1", "note": "[ONC0001467, sc560]", "% viability": 59.03}, {"smiles": "COc1ccc(C2=NC(c3ccc(Cl)cc3)C(c3ccc(Cl)cc3)N2C(=O)N2CCNC(=O)C2)c(OC(C)C)c1", "note": "(centres unmarked) [ONC0004648, nutlin3]", "% viability": 96.53}, {"smiles": "Nc1ccncc1", "note": "[ONC0000653, fampridine]", "% viability": 146.4}, {"smiles": "N=C(N)NCCSSCCNC(=N)N", "note": "[ONC0004097, guanidinoethyldisulfidebicarbonate]", "% viability": 107.9}, {"smiles": "COc1cc(C[C@@H](CO)[C@H](CO)Cc2ccc(O)c(OC)c2)ccc1O", "note": "[ONC0002154, secoisolariciresinol]", "% viability": 77.22}, {"smiles": "CN(C)C(=O)C(CCN1CCC(O)(c2ccc(Cl)cc2)CC1)(c1ccccc1)c1ccccc1", "note": "[ONC0005328, loperamide hydrochloride]", "% viability": 73.55}, {"smiles": "O=C(CN1CCN(C(=O)c2ccco2)CC1)Nc1cc(C(F)(F)F)ccc1Cl", "note": "[ONC0003072, ml348]", "% viability": 145.2}, {"smiles": "CC(=O)C1C(=O)C=C(C)OC1=O", "note": "(centres unmarked) [ONC0000295, dehydroacetic acid]", "% viability": 80.95}, {"smiles": "CC(=O)O[C@H]1CC[C@@]2(C)C(=CC[C@@H]3[C@@H]2CC[C@]2(C)C(c4cccnc4)=CC[C@@H]32)C1", "note": "[ONC0004597, abiraterone acetate]", "% viability": 81.56}, {"smiles": "COc1ccccc1N1CCN(CCN2C(=O)c3ccccc3C(C)(C)C2=O)CC1", "note": "[ONC0002595, arc239]", "% viability": 81.65}, {"smiles": "O=C1CCC[C@@H]2[C@@H]3CCC[N+]4([O-])CCC[C@H](CN12)[C@@H]34", "note": "(some centres unmarked) [ONC0005063, oxymatrine matrine noxide]", "% viability": 117.3}, {"smiles": "CC[C@H](C)[C@H](NC(=O)[C@H](Cc1ccc(O)cc1)NC(=O)[C@@H](NC(=O)[C@H](CCCNC(=N)N)NC(=O)[C@@H](N)CC(=O)O)C(C)C)C(=O)N[C@@H](Cc1cnc[nH]1)C(=O)N1CCC[C@H]1C(=O)N[C@@H](Cc1ccccc1)C(=O)O", "note": "[ONC0002134, angiotensin ii human]", "% viability": 79.83}]}]}
